Test results: patent publication EP4778539A1
No constants are given. Whether binding was seen depends on the method and setting. Some entries that bind do so weakly or less than the wild type.

Amino acid sequences for entries named in this document (tags omitted). A change or cut given only in a name is not applied to a line headed by its entry.
UniProt P01630: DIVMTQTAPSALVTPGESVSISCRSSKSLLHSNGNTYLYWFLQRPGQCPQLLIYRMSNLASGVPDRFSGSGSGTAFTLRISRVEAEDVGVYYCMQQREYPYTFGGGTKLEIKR

How the values were obtained:
[1] = target: T1, mouse CAPRIN-1 on the cell membrane surface of mouse cancer cells (mouse) (UniProt Q60865); assay: flow cytometry, mouse cancer cells
T1 sequence (looked up): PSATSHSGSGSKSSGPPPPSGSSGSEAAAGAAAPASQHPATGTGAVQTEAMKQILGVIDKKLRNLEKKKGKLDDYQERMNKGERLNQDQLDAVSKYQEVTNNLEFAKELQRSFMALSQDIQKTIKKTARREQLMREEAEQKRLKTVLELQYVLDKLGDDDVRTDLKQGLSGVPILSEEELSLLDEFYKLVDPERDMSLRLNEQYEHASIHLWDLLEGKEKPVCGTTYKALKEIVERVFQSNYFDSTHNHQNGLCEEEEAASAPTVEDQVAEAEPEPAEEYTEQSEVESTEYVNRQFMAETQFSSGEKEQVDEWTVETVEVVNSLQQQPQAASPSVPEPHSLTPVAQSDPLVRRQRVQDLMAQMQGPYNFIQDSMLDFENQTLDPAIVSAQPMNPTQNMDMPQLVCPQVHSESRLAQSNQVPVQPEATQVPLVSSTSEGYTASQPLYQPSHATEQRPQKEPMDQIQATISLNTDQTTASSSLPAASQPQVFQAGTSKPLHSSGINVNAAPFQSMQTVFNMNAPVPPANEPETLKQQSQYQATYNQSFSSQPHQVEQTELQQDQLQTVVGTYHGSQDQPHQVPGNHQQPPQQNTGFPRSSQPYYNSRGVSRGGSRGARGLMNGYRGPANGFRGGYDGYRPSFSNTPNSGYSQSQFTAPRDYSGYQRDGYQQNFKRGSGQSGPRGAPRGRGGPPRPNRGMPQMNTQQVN

[2] = target: T1, mouse CAPRIN-1 on the cell membrane surface of mouse cancer cells (mouse); assay: flow cytometry, 4T1
[3] = target: T2, human CAPRIN-1 on the cell membrane surface of human cancer cells (human) (UniProt Q14444); assay: flow cytometry, human cancer cells
T2 sequence (looked up): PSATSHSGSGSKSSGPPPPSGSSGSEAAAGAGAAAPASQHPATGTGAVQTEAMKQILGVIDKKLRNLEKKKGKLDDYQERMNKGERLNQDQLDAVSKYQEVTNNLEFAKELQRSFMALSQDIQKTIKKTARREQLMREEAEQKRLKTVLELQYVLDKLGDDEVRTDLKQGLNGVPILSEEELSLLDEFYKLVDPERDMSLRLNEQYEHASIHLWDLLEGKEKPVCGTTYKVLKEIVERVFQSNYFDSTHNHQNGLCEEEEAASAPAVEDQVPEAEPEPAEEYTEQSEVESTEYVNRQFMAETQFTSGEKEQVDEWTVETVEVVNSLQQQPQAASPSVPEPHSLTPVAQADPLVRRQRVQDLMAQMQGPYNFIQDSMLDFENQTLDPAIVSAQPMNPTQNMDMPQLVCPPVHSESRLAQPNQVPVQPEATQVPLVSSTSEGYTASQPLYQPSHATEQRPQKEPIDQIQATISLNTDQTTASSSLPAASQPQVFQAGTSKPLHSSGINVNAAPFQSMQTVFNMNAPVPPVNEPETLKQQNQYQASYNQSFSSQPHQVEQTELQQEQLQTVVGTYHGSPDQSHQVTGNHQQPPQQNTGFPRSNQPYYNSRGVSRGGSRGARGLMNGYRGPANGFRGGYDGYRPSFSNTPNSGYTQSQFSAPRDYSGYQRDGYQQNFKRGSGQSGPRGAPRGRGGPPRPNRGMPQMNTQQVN

[4] = target: T2, human CAPRIN-1 on the cell membrane surface of human cancer cells (human); assay: flow cytometry, HT29

Row | binding [1] | binding [2] | binding [3] | binding [4] | Substance
1 | binds | binds | binds | binds | F(ab')2 complex #63 (from UniProt P01665 12-111)
2 | binds | binds | binds | binds | F(ab')2 complex #14 (from UniProt P01630 1-108)
3 | binds | binds | binds | binds | F(ab')2 complex #30 (from UniProt P01665 12-111)
4 | binds | binds | binds | binds | F(ab')2 complex #47 (from UniProt P01630 1-108)
